Data reported in paper PMC3948860.
Results are given in words; binding and its absence hold for the method and conditions named. Binding seen in cells or lysates may run through a third protein. Some binding calls cover weakened binding; strength is not graded here. One block for each substance: values may come before it.

Chains of the proteins cited; added tags and fusions are not shown. Lines headed by an entry give the natural chain unless they say otherwise; changes in a name come on top. Residues count along the entry.
UniProt P50406: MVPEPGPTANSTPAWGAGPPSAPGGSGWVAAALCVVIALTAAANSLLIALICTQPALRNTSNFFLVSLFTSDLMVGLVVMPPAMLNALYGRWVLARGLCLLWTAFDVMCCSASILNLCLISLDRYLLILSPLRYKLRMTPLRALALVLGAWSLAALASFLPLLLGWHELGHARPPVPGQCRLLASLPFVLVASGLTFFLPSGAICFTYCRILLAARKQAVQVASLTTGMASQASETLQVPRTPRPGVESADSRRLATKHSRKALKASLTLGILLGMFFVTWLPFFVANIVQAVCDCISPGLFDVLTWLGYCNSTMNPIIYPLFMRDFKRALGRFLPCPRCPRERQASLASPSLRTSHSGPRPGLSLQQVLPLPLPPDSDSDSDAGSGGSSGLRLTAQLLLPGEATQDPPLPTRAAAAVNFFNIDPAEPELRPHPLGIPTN
GST-carboxyl-terminus (CT) of the 5-HT6R: residues 321-440 of P50406
UniProt P15205: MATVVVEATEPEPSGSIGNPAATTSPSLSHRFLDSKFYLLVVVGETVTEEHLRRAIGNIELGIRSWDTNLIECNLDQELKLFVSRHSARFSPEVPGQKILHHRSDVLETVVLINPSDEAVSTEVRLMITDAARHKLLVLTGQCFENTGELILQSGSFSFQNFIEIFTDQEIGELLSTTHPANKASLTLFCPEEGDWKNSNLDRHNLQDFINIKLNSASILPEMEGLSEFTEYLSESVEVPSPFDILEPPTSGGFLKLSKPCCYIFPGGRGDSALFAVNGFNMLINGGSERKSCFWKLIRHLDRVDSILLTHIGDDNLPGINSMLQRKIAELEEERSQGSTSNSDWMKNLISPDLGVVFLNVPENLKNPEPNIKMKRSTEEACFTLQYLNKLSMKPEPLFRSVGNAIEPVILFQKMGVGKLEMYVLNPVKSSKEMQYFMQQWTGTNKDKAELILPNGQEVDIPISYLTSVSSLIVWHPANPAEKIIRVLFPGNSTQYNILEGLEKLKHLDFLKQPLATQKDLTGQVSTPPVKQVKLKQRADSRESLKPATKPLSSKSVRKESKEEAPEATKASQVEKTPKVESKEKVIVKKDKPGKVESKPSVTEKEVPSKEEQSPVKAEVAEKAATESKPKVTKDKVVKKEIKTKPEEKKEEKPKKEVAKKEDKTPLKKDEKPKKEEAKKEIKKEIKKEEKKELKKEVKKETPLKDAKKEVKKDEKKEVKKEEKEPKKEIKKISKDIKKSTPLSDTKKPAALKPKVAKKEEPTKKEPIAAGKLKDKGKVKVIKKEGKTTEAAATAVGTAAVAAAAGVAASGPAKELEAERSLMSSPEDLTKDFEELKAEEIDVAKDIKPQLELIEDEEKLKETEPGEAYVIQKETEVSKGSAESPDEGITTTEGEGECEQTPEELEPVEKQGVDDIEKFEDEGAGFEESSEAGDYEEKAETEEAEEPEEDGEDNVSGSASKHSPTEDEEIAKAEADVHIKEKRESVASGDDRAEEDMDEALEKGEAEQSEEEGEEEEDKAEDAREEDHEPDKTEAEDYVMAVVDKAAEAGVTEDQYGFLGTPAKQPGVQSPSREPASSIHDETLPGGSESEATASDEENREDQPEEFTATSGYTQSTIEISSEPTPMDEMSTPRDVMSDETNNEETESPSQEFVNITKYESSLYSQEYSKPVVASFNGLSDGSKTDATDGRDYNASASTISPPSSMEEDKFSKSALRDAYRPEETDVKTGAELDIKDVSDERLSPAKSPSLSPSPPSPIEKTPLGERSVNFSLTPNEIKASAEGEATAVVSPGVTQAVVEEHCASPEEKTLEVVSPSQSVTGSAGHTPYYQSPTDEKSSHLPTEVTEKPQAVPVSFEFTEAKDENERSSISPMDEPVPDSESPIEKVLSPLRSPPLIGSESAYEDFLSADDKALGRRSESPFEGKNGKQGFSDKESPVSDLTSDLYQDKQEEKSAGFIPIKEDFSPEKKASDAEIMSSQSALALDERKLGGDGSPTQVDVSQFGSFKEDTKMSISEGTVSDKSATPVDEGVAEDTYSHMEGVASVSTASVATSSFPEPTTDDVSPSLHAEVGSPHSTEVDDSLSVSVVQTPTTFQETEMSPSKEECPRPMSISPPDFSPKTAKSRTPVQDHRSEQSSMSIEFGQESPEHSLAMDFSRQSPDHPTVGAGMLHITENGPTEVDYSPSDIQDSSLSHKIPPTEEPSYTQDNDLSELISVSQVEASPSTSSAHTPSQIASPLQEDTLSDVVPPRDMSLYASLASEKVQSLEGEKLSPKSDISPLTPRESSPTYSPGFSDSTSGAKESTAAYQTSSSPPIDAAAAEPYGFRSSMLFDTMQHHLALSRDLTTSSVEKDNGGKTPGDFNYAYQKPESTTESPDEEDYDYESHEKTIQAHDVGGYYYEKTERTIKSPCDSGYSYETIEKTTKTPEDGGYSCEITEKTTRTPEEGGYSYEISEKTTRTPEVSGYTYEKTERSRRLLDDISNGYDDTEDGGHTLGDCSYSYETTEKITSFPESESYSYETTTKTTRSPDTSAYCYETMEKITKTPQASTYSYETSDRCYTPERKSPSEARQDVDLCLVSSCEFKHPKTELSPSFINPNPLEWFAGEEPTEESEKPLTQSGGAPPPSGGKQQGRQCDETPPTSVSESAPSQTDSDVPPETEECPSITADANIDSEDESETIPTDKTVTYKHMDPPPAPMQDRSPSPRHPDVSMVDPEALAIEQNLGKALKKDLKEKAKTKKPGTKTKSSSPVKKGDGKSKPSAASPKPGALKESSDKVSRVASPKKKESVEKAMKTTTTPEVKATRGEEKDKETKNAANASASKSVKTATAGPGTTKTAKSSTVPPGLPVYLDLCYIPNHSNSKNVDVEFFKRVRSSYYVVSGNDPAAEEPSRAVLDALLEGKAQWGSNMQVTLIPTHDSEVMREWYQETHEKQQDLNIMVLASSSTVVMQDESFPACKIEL
UniProt P31388: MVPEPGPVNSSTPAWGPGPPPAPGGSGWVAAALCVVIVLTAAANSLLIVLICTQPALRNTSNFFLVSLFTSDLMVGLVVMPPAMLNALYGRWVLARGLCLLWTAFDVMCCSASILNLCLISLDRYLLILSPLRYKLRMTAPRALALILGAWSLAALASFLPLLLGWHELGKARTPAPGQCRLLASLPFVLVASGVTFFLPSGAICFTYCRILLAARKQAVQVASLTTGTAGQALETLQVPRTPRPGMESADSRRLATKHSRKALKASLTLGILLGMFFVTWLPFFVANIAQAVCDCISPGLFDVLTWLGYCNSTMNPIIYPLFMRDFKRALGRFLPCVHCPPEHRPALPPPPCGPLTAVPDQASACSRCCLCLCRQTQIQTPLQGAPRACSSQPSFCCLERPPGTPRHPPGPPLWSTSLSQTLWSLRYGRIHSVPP
UniProt P46821: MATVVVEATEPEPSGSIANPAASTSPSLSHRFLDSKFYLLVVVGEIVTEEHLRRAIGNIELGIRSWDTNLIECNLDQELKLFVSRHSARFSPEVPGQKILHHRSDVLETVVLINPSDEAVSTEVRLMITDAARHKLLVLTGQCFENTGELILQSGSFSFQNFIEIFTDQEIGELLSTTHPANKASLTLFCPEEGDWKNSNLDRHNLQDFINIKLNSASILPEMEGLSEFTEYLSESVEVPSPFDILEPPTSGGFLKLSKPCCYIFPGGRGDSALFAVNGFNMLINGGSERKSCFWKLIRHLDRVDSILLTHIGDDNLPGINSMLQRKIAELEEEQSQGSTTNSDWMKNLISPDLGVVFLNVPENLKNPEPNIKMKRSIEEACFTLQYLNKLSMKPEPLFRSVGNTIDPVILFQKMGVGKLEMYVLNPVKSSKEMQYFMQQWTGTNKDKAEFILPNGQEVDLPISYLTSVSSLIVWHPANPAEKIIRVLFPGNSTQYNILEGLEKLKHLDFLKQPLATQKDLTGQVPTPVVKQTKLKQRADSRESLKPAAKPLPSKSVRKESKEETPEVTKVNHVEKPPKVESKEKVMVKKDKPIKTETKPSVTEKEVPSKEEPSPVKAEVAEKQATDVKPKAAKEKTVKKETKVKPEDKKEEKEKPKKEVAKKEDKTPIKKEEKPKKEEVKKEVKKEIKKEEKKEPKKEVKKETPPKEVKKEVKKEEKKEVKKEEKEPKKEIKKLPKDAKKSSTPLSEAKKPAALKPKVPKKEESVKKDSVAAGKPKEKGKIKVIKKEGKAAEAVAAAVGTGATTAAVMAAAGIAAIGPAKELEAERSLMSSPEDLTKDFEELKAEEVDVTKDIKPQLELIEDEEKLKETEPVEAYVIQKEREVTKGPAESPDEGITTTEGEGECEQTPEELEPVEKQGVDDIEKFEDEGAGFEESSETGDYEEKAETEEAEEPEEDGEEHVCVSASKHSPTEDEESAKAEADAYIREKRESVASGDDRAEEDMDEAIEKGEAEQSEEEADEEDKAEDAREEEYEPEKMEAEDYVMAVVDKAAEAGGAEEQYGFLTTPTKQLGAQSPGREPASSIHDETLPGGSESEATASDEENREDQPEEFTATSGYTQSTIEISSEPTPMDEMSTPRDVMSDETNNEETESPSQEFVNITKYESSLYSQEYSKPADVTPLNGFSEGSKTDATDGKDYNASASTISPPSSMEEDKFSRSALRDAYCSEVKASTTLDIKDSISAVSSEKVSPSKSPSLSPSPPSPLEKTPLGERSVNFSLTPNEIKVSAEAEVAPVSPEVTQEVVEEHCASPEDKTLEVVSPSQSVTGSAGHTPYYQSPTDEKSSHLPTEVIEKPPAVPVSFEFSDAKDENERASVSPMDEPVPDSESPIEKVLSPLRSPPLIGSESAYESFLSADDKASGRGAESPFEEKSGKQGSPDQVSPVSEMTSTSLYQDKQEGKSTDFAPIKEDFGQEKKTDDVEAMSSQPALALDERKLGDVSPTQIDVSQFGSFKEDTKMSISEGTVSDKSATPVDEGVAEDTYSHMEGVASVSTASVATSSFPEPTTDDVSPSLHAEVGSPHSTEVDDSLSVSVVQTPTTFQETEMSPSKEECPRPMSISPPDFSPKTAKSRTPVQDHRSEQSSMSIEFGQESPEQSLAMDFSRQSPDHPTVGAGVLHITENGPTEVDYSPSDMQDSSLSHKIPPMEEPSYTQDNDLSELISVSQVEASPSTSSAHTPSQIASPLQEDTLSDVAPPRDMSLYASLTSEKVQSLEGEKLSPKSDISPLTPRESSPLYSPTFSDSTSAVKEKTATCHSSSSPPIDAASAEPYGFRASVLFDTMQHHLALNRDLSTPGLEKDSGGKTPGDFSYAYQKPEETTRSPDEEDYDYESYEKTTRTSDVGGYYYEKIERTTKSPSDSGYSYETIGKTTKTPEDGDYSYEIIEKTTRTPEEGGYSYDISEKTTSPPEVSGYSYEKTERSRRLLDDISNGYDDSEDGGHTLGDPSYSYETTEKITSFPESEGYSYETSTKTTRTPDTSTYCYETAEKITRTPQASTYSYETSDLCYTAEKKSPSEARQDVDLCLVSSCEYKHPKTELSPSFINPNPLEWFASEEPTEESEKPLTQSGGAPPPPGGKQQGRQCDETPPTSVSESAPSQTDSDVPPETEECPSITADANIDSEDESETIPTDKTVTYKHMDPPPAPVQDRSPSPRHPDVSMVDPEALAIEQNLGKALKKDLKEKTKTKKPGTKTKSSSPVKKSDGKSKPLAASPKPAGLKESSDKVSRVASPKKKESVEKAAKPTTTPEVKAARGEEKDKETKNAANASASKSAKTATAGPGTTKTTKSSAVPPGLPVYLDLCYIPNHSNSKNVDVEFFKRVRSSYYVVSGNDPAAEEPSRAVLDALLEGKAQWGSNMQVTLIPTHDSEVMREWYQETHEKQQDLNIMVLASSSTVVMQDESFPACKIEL

Legend:
[1] = target: HA-tagged 5-HT6R, stably expressed in HEK293 cells (HEK293/HA-6R) (human) (UniProt P50406); assay: co-IP; HEK293/HA-6R cells transiently transfected with Flag-LC1; immunoprecipitation with anti-HA, immunoblot with anti-Flag
[2] = target: GST-carboxyl-terminus (CT) of the 5-HT6R (human) (UniProt P50406); assay: pull-down; GST-tagged CT regions immobilized on glutathione gel, incubated with HEK293 cell lysates containing Flag-LC1; three washes with lysis buffer; immunoblot with anti-Flag and anti-GST; only the target purified
[3] = target: endogenous MAP1B of rat brain (rat (endogenous in fetal rat brain)) (UniProt P15205); assay: co-IP; fetal rat brain lysate; reverse: immunoprecipitation with anti-MAP1B, immunoblot with 5-HT6R antibodies
[4] = target: endogenous 5-HT6R of rat brain (rat (endogenous in fetal rat brain)) (UniProt P31388); assay: co-IP; fetal rat brain lysate; immunoprecipitation with anti-5-HT6R, immunoblot with anti-MAP1B; control IgG
[5] = target: HA-5-HT6R, transiently expressed in SH-SY5Y cells (human) (UniProt P50406); assay: co-IP; SH-SY5Y cells transiently transfected with HA-5-HT6R; immunoprecipitation with anti-HA, immunoblot with anti-MAP1B; control IgG

Substance: Flag-tagged LC1 of MAP1B (from UniProt P46821 2207-2468) (domain or fragment)
binding [1]: binds
binding [2]: binds

binding [3]: binds
Substance: endogenous 5-HT6R of rat brain (from UniProt P31388 1-436) (receptor)

binding [4]: binds
Substance: endogenous MAP1B of rat brain (from UniProt P15205 1-2461)

binding [5]: binds
Substance: endogenous MAP1B protein of SH-SY5Y cells (from UniProt P46821 1-2468)
